In paper PMC4164784, “4E-BPs require non-canonical 4E-binding motifs and a lateral surface of eIF4E to repress translation” (Nature Communications, 2014):
Results are given in words; binding and its absence hold for the method and conditions named. For some of these results: In cells and extracts the contact can be indirect. Some entries that bind do so weakly or less than the wild type. Sequences can lack the tags named with a protein. Each block holds one binder with its values, some of them ahead of it.

How the values were obtained:
[1] = molecular target: T1, SHN-eIF4E (full length, II-AA mutant) (Drosophila melanogaster) (UniProt P48598); assay: pull-down; competition: those purified complexes mixed with bacterial lysates expressing MBP-eIF4G-GB1 (or MBP), 30 min at 4 °C; Strep-Tactin beads; only the target purified
T1 sequence: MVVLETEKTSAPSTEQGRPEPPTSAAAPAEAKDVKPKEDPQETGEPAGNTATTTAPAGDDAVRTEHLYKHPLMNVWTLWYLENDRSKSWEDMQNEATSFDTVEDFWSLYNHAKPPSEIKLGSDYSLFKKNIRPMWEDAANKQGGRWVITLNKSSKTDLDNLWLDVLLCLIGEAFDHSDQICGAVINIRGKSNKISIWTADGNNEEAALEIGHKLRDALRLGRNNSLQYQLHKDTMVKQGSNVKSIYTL

[2] = molecular target: T2, HA-eIF4E (WT) (Drosophila melanogaster) (UniProt P48598); assay: co-IP; S2 cell lysates; HA-eIF4E (WT or mutated) with GFP-tagged full-length 4E-BPs and endogenous eIF4G; western blot
T2 sequence: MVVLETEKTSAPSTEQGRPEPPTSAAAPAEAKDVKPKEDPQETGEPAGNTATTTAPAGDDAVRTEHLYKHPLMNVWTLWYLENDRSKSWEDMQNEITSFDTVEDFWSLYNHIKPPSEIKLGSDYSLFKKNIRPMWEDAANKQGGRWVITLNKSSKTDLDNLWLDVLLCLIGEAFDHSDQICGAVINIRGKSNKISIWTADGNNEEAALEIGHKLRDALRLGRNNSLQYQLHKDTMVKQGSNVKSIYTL

[3] = molecular target: T3, HA-eIF4E II-AA (Drosophila melanogaster) (UniProt P48598); assay: as above
T3 sequence: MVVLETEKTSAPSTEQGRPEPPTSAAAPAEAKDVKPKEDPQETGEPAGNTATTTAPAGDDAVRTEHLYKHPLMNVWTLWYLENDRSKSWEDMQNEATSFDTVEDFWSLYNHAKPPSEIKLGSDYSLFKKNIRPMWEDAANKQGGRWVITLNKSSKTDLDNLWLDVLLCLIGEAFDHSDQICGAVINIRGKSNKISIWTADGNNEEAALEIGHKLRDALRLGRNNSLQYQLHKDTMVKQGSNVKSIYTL

[4] = molecular target: T4, GST-CUP-GB1 (residues 311–440, WT) (Drosophila melanogaster) (UniProt Q9VMA3); assay: pull-down; eIF4E coexpressed with the GST- or MBP-tagged bait in E. coli; cleared lysates on glutathione agarose or amylose resin, 1 h; 20 mM Tris–HCl pH 7.5, 100 mM NaCl, 1 mM DTT; Coomassie
T4 sequence: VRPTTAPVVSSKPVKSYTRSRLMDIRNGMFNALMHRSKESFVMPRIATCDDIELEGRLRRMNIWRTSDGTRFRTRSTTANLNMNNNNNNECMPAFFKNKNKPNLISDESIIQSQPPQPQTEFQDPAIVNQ

[5] = molecular target: T5, MBP-Thor (full length, NC*) (Drosophila melanogaster) (UniProt Q9XZ56); assay: as above
T5 sequence: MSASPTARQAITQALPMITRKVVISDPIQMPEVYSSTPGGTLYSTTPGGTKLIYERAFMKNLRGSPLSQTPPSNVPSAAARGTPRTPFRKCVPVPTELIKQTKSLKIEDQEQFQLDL

[6] = molecular target: T6, MBP-Thor (full length, ΔNC) (Drosophila melanogaster) (UniProt Q9XZ56); assay: as above
T6 sequence: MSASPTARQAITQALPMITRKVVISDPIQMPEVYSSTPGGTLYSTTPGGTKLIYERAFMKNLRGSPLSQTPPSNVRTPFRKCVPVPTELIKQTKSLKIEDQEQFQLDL

[7] = molecular target: T7, MBP-eIF4G (residues 578–650, WT) (Drosophila melanogaster) (UniProt O61380); assay: as above
T7 sequence: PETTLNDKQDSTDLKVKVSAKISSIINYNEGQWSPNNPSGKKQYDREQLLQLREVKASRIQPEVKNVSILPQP

[8] = molecular target: T8, MBP-4E-T (fragment 1–58, WT) (Drosophila melanogaster) (UniProt Q8IH18); assay: as above
T8 sequence: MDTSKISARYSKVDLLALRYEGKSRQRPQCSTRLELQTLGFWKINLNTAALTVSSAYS

[9] = molecular target: T9, SHN-eIF4E (full length, WT) (Drosophila melanogaster) (UniProt P48598); assay: pull-down; preassembled complexes of SHN-eIF4E (WT or II-AA) with GST-eIF4G, GST-CUP, GST-Thor or GST-4E-T (coexpressed, purified on glutathione agarose) recovered on Strep-Tactin beads; both purified
T9 sequence: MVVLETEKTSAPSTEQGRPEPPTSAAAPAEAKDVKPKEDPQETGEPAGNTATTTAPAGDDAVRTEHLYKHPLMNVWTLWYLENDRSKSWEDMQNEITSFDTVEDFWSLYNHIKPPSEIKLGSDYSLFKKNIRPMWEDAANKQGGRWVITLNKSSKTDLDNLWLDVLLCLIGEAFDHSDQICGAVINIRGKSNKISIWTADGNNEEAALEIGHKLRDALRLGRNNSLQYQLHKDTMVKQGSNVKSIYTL

- binding [1]: binds
B1: MBP-eIF4G-GB1 (residues 578–650) (domain or fragment, UniProt O61380 578-650)
chain: PETTLNDKQDSTDLKVKVSAKISSIINYNEGQWSPNNPSGKKQYDREQLLQLREVKASRIQPEVKNVSILPQP

- binding [4]: binds
- binding [5]: binds
- binding [6]: binds
- binding [7]: binds
B4: His6-eIF4E (full length, II-AA mutant) (protein, UniProt P48598-2 1-248)
chain: MVVLETEKTSAPSTEQGRPEPPTSAAAPAEAKDVKPKEDPQETGEPAGNTATTTAPAGDDAVRTEHLYKHPLMNVWTLWYLENDRSKSWEDMQNEATSFDTVEDFWSLYNHAKPPSEIKLGSDYSLFKKNIRPMWEDAANKQGGRWVITLNKSSKTDLDNLWLDVLLCLIGEAFDHSDQICGAVINIRGKSNKISIWTADGNNEEAALEIGHKLRDALRLGRNNSLQYQLHKDTMVKQGSNVKSIYTL

- binding [8]: binds
B5: SHN-eIF4E (full length, II-AA mutant) (protein, UniProt P48598-2 1-248)
chain: MVVLETEKTSAPSTEQGRPEPPTSAAAPAEAKDVKPKEDPQETGEPAGNTATTTAPAGDDAVRTEHLYKHPLMNVWTLWYLENDRSKSWEDMQNEATSFDTVEDFWSLYNHAKPPSEIKLGSDYSLFKKNIRPMWEDAANKQGGRWVITLNKSSKTDLDNLWLDVLLCLIGEAFDHSDQICGAVINIRGKSNKISIWTADGNNEEAALEIGHKLRDALRLGRNNSLQYQLHKDTMVKQGSNVKSIYTL

- binding [8]: binds
B6: SHN-eIF4E (full length, WT) (protein, UniProt P48598-2 1-248)
chain: MVVLETEKTSAPSTEQGRPEPPTSAAAPAEAKDVKPKEDPQETGEPAGNTATTTAPAGDDAVRTEHLYKHPLMNVWTLWYLENDRSKSWEDMQNEITSFDTVEDFWSLYNHIKPPSEIKLGSDYSLFKKNIRPMWEDAANKQGGRWVITLNKSSKTDLDNLWLDVLLCLIGEAFDHSDQICGAVINIRGKSNKISIWTADGNNEEAALEIGHKLRDALRLGRNNSLQYQLHKDTMVKQGSNVKSIYTL

The next lines start with the binder.

B2: GFP-CUP (full length) (protein, UniProt Q9VMA3 1-1117)
chain: MQMAEAEQENGAGALKIATNAGATDRPAHQQLPLPVEDQQDEVLTPAEKGKFEYPPPPPPPTPVQAPLATKATALNASQEHDDDEANSEKWEDPCAPPPPPPLPTSAFLATGLGYLKLPAFKLKDALEKAITKLEANKRTLKASPESSRSIKNKNVVALEMLPRRSNPETIGDGSMLASTSTAVMLQTKKPAVIVEMERRCKIINLLAKQNQILESISGEAIPMHGPSKHLHEDEGLTLQVLSARASTPYTQPSSMLSCTAVSCDLEHDSPRKQVASKEAVPEQQSSQVQQKRPPSTGIHKPGSLRAPKAVRPTTAPVVSSKPVKSYTRSRLMDIRNGMFNALMHRSKESFVMPRIATCDDIELEGRLRRMNIWRTSDGTRFRTRSTTANLNMNNNNNNECMPAFFKNKNKPNLISDESIIQSQPPQPQTEFQDPAIVNQRRIGSGRLNHSKWGYNDEDYHSYHNGKSQHMEEVNSKNSKNMTVLQFFDNGEISSQPQRRPNTPVMGMSINRSENDTLHSNESSEDLSRANENYVKRVMSGFLVVSKPKSRDVEDRHHRRYRNQNEEPEWFSCGPTSRLDTIELCGFDEDEEKMLKEGNKNHGLGETERETSKQKMDHKYKWTHAEPMGRSKYMPKHDTNNNHNVENMNNVMATEHQQQKEEKRPGSGRSFQFDKFNQSQQNYESSSYVNHQQPPQTQPQQMQQQSNTNTNNSKFMSFFANEGNSSSSSLNEFFKQAINQGHGNNPEQPKSLGHIGQMPSVDQLEAKWRRNSLNNVGETANKQTDNFQKLIGSLSSAKPQSQAVGYDAISNFIMQQQQYQQQQQKQHLIIQQQQQHTAFLASLQLKAILGRADTQLLLLRLTKGEISKHGLLVQLANPRLTDMDREAITAVLQFTNTQQQQQQHKQQLDMLSSTVIASQLQNLHNLAIVQQTLAARQQPQHNPQTQAPHQLSQEDLQAHANVIMRNAVMKRKIEEQTSKLINGGAKHQAQQQYLNRGQQRQARPDANSNALLHALISGGGNNHASGYPMNGQPQKHHSNLRFGDNQNFQSFESNQPHFATQYKQQYQQSQQQHPHQQPQQLNSLHQNNAGAVNSFNKAQMQAQSAISMLPNSGDEFH
- binding [2]: binds
- binding [3]: no binding

B3: GFP-4E-T (full length, WT) (protein, UniProt Q8IH18 1-1010)
chain: MDTSKISARYSKVDLLALRYEGKSRQRPQCSTRLELQTLGFWKINLNTAALTVSSAYSNQNKNRLSPEADNSSLICSNSSSISSRRAMRNRERANNYYQRFVPTDSLLISGEDKDKDALSHGQPYKLNIIDHRSISSSHLMPAFAKRRFVISKGSNSEESNEGINTCASKGKAASSPSRKGSELDTAETCLNFVQPDHDQCMSSSPTFSTSRQERRIGSGRLLPRSDNWDYKNEKTVEASIENEKETSPNGSGSTSSLNQHNQSQHRSRTFSGRLVERVPEVTDRRFQYDSKKSFDRQGINNRRISGKEPFSTQSRSKRGNSYLIHEEPEWFSAGPKSQLETIDLHGFEDLEKNEERSVTEDKNNQIQQLDKNLDAQASKDEASMRNSNDSLNFREVIPSDEKKHTDENVVTSIQNSTDLGHPNKNKPIQMQPSQNPESEFNFDAFLNMHPLDNSVLSNDETGKSDSKGTSRFSRWFRQKEAANNNEFPGFRESHAQEKRGIPSVKDLEAQMIKVDMRTDLINPIAGSLCQTVQMEKPIARDTEAFKKLLQQLGSQARQHHPCNDDCRTINLSNIANHVHLESKLHQKINDGHLQQPELSVNVPTMPTSSHVFLQKRLEIQHLIQRLHCGDVSHDFLEKELDNPSTPAATKDVIATVLNEYSHSKRNPVVTGDPNIFTQQSFLQPQSVHQHYSQELHSQNTANHTINQLISHGNSPTPLAFTPTSVLRKMTADKDTQSPSTYCQNPQYHVHQQNAKQVGTRENVLEPQLTATMAVQPRMILGGGNFAIGQNNQHLSPNMSQSRNQQVLKWTSGNMQMVHGKTFGRPILKGGLNSMPHSNSALPFTAHKIEMQPIHQPHLQQQQHRFKAVQSVESNLNTESVHQNITSPVGWHQLYMQHQQQHHHTRQQLSQRVIYGEMHRQSNPQMSPPVPGFSDSSDSGNVIKANSLTSPSYQRDERISSPTNQLAQWFSPELLAKASAGKLPLLNVNQALSLEEFERSIQHSSGVVHN
- binding [2]: binds
- binding [3]: no binding

B7: GFP-Thor (full length) (protein, UniProt Q9XZ56 1-117)
chain: MSASPTARQAITQALPMITRKVVISDPIQMPEVYSSTPGGTLYSTTPGGTKLIYERAFMKNLRGSPLSQTPPSNVPSCLLRGTPRTPFRKCVPVPTELIKQTKSLKIEDQEQFQLDL
- binding [2]: binds

B8: GST-4E-T (residues 1–58) (domain or fragment, UniProt Q8IH18 1-58)
chain: MDTSKISARYSKVDLLALRYEGKSRQRPQCSTRLELQTLGFWKINLNTAALTVSSAYS
- binding [9]: binds
